In the supplement of paper PMC12823440, “Inhibitors supercharge kinase turnover through native proteolytic circuits” (Nature, 2025):
Counter-ions that a name gives are not always drawn. The list shows a part of the results. The calls rarely recur for the same compound in another form.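 Kinases, fused to nanoluciferase, were expressed in K562 cells; luminescence was measured every 4 h from 2 to 18 h as percent of control (DMSO = 100%, positive control = 0%). A time point is decreased if signal falls significantly (2 sigma). Hits were called by the authors by a rule that is not shown; the count of time points alone does not decide it.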

Protein sequences, listed by entry. Tags and fused reporters are not part of them.
UniProt P31152, whole entry: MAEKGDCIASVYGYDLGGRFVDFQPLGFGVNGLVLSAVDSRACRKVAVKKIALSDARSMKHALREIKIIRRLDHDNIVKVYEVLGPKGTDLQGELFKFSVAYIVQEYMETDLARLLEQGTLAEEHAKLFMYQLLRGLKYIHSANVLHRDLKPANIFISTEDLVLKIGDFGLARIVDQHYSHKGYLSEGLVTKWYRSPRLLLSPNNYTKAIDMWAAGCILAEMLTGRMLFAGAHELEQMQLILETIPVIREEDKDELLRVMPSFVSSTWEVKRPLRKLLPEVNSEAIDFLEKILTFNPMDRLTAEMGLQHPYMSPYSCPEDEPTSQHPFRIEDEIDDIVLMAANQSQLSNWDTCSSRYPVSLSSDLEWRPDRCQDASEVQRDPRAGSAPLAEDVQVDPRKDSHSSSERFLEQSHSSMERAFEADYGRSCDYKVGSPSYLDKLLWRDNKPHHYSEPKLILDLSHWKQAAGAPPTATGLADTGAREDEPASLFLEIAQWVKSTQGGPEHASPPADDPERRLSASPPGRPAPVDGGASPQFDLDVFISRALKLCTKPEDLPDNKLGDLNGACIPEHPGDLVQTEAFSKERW

target: MAPK4 (UniProt P31152); experiment: kinase-Nluc reporter destabilization hit call (1 = scored as downregulated) (binary); higher = compound decreases kinase abundance; conditions: 2.5 µM; K562; 2-18 h

kinase-Nluc reporter destabilization hit call, inactive:
CN1CCCN(C(=O)c2cccc(-c3ccc(/C=C4/C(=O)Nc5ccc(Cl)cc54)o3)c2)CC1 [CX-6258 (hydrochloride)] 0
Clc1ccc(C2(c3ccc(-c4cn[nH]c4)cc3)CCNCC2)cc1 [AT7867 (dihydrochloride)] 0
CC(C)Oc1ccc(-c2nn([C@@H](C)c3oc4ccc(F)cc4c(=O)c3-c3cccc(F)c3)c3ncnc(N)c23)cc1F [Umbralisib] 0
C=CC(=O)Nc1cc(Nc2nccc(-c3cn(C)c4ccccc34)n2)c(OC)cc1N(C)CCN(C)C [Osimertinib] 0
COc1cc2c(Oc3ccc4[nH]c(C)cc4c3F)ncnc2cc1OCCCN1CCCC1 [Cediranib (maleate)] 0
CC(C)Oc1ccc(-c2nn([C@@H](C)c3oc4ccc(F)cc4c(=O)c3-c3cccc(F)c3)c3ncnc(N)c23)cc1F [Umbralisib (hydrochloride)] 0
COc1ccc(S(=O)(=O)N(CCO)c2ccccc2CN(C)C/C=C/c2ccc(Cl)cc2)cc1 [KN-93 (hydrochloride)] 0
C=CC(=O)N1CCN(c2ncnc3c(F)c(-c4c(O)cccc4F)c(Cl)cc23)CC1 0
COc1ccc(S(=O)(=O)Nc2ccccc2CN(C)C/C=C/c2ccc(Cl)cc2)cc1 [KN-92 (hydrochloride)] 0
CCN(CC)Cc1ccc(OC)c(-c2cc3c(-c4ccc(C(=O)O)c(C(C)C)c4)ccnc3[nH]2)c1 0
CN(C)C/C=C/C(=O)Nc1cc2c(Nc3ccc(F)c(Cl)c3)ncnc2cc1O[C@H]1CCOC1 [Afatinib (dimaleate)] 0
Oc1cccc(-c2nc(N3CCOCC3)c3oc4ncccc4c3n2)c1 [PI-103 (Hydrochloride)] 0
c1cc(-c2cnn3cc(-c4ccc(OCCN5CCCCC5)cc4)cnc23)ccn1 [Dorsomorphin] 0
COc1ccc(S(=O)(=O)N(CCO)c2ccccc2CN(C)C/C=C/c2ccc(Cl)cc2)cc1 [KN-93 (phosphate)] 0
Nc1ncnc2c1c(-c1ccc(Oc3ccccc3)cc1)nn2[C@@H]1CCCNC1 [IBT6A (hydrochloride)] 0

same assay, conditions: 10 µM; K562; 2-18 h

kinase-Nluc reporter destabilization hit call, inactive:
COc1cc2nccc(Oc3ccc(NC(=O)C4(C(=O)Nc5ccc(F)cc5)CC4)cc3)c2cc1OC [Cabozantinib (S-malate)] 0
Cn1cc(-c2cnc3ccc4ccc(CS(=O)(=O)NCc5ccccn5)cc4c(=O)c3c2)cn1 [MK-8033 (hydrochloride)] 0
CNC(=O)c1ccc(Nc2ncc(C(F)(F)F)c(NCc3nccnc3N(C)S(C)(=O)=O)n2)cc1 [Defactinib] 0
N#CCNC(=O)c1ccc(-c2ccnc(Nc3ccc(N4CCOCC4)cc3)n2)cc1 [Momelotinib] 0
CC(=O)c1c(C)c2cnc(Nc3ccc(N4CCNCC4)cn3)nc2n(C2CCCC2)c1=O [Palbociclib (isethionate)] 0
Nc1cncc(-c2cn3ccnc3c(Nc3ccc(N4CCN(C5COC5)CC4)cc3)n2)n1 [Lanraplenib (succinate)] 0
C#Cc1cccc(Nc2ncnc3cc4c(cc23)OCCOCCOCCO4)c1 [Icotinib] 0
O=C(O)c1ccc2c(c1)nc(Nc1cccc(Cl)c1)c1ccncc12 [Silmitasertib (sodium salt)] 0
CC(C)Nc1cc(-c2c[nH]c(C(=O)N[C@H](CO)c3cccc(Cl)c3)c2)c(Cl)cn1 [Ulixertinib (hydrochloride)] 0
C=CC(=O)N1CCN(c2ncnc3c(F)c(-c4c(O)cccc4F)c(Cl)cc23)CC1 0
CN(C)C(=O)c1cc2cnc(Nc3ccc(N4CCNCC4)cn3)nc2n1C1CCCC1 [Ribociclib] 0
COc1cc2c(-c3cnn4cc(N5CCC(N6CCN(C)CC6)CC5)cnc34)ccnc2cc1F [ALK2-IN-4 (succinate)] 0
CCN(CC)Cc1ccc(OC)c(-c2cc3c(-c4ccc(C(=O)O)c(C(C)C)c4)ccnc3[nH]2)c1 0
O=C(c1nn(-c2ccc(CN3CCOCC3)cc2)c2c1CS(=O)(=O)c1c(F)cccc1-2)N1CCOCC1 0
CC(C)(C)n1nc(-c2cccc3ccccc23)c2c(N)ncnc21 [1-Naphthyl PP1 (hydrochloride)] 0
CCN(CC)CC(=O)Nc1c(C)cccc1C [Lidocaine (hydrochloride)] 0
Cn1ncc(Cl)c1-c1cc(C(=O)N[C@H](CN)Cc2cccc(F)c2)sc1Cl [Afuresertib (hydrochloride)] 0
COc1cc2c(cc1OC)-c1c(C)c3ccc(OC)c(OC)c3c[n+]1CC2 [Dehydrocorydaline] 0
C[C@H](CCC(=O)NCCS(=O)(=O)O)[C@H]1CC[C@H]2[C@@H]3[C@@H](O)C[C@@H]4C[C@H](O)CC[C@]4(C)[C@H]3CC[C@]12C [Tauroursodeoxycholate (dihydrate)] 0
OCCn1cc(-c2cnc3nnn(Cc4ccc5ncccc5c4)c3n2)cn1 0
C[S+]([O-])c1ccc(-c2nc(-c3ccc(F)cc3)c(-c3ccncc3)[nH]2)cc1 (configuration not stated) 0
CC(C)(C)n1nc(-c2cccc3ccccc23)c2c(N)ncnc21 [1-Naphthyl PP1] 0
